# Results deposited as PubChem BioAssay AID504784 (Drosophila RNAi Screening Center, 2011).
# Test: 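Genome-wide knock-down for genes giving too much or too little stored lipid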 (primary screen)
# Cell system: Drosophila Kc167 embryonic cells
# Knock-down reagent: long dsRNA against Drosophila genes, about 250 ng dsRNA per well
# Timing: 4 days
# Conditions: cells fed 400 µM oleic acid bound to BSA
# Detection: 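Cells imaged and segmented; ratio of lipid droplet area to nuclear area, log-transformed, then normalised as a B-score over the screen; higher means more stored lipid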
# Scale: droplet/nuclear area B-score: higher = more stored lipid (overstorage)
# The deposit covers about 17,000 reagents; below is a random part of those that have a named target and a result. 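Each column is one replicate's B-score; the combined score over replicates was not deposited, so single values may mislead.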 A plus sign joins genes that one reagent is predicted to hit. Further read-outs or replicates are left out here.
gene,DRSC id,"droplet/nuclear area B-score, replicate 1","droplet/nuclear area B-score, replicate 2"
AsnRS (Asparaginyl-tRNA synthetase),DRSC01990,-0.646,-0.416
CG8219,DRSC10971,-0.107,-0.548
CG15370,DRSC18042,0.525,2.34
CG15370,DRSC23277,0.0968,-0.0863
ReepB (Receptor expression enhancing protein B),DRSC07150,1.42,-0.215
CG12699,DRSC06162,-0.526,-0.817
Smg6,DRSC16029,-0.202,-1.1
CG7220,DRSC05235,0.706,-0.422
CG7220,DRSC07018,0.174,-0.157
Spase22-23 (Spase 22/23-subunit),DRSC15857,0.00463,0.0699
Qsox3 (Quiescin sulfhydryl oxidase 3),DRSC16096,-0.106,-0.566
CG9162 (retired record),DRSC03151,0.1,-2.14
Zwilch,DRSC15376,0.201,3.03
alrm (astrocytic leucine-rich repeat molecule),DRSC14436,0.862,0.23
CG30183,DRSC04450,-0.00966,1.72
CG30183,DRSC04472,-0.458,-1.04
rod (rough deal),DRSC17047,1.05,0.347
Cpr78E (Cuticular protein 78E),DRSC11807,0.498,0.644
Socs44A (Suppressor of Cytokine Signaling at 44A),DRSC06828,0.7,0.222
CG13168,DRSC06295,-1.3,0.748
CG10505,DRSC04075,-0.679,-1.12
BomBc3 (Bomanin Bicipital 3),DRSC15873,-0.956,0.807
CG18493,DRSC15334,-0.256,-0.135
Fie (Fire exit),DRSC08158,-1.61,0.542
CG30008,DRSC21576,-0.668,3.36
CG31710,DRSC01089,1.61,0.551
CG31710,DRSC22863,2.65,0.188
Or67b (Odorant receptor 67b),DRSC11241,0.0955,-0.415
Hsp67Bc (Heat shock gene 67Bc),DRSC11193,0.236,0.233
VhaM9.7-c (Vacuolar H[+] ATPase M9.7 subunit c),DRSC08204,0.777,-0.817
CG12713,DRSC09900,0.58,1.08
CG13743,DRSC05139,5.99,0.21
CG13743,DRSC06414,3.58,3.63
CG13743,DRSC22775,0.366,-0.171
Obp99c (Odorant-binding protein 99c),DRSC16262,-0.11,0.824
Wdr59 (WD repeat domain 59),DRSC02771,0.527,-0.103
CG33107,DRSC21898,-0.0184,-0.501
Actbeta (Activin-beta),DRSC17185,1.31,0.422
Actbeta (Activin-beta),DRSC17217,0.216,-0.471
RhoGEF64C (Rho guanine nucleotide exchange factor at 64C),DRSC08318,1.29,0.0722
RhoGEF64C (Rho guanine nucleotide exchange factor at 64C),DRSC08319,2.39,1.56
Ate1 (Arginyltransferase 1),DRSC05925,1,0.555
CG14515,DRSC14867,0.117,-1.44
CG13380 + CG4174,DRSC09988,1.08,-0.482
CG13380 + CG4174,DRSC10406,-0.675,2.68
PGRP-LE (Peptidoglycan recognition protein LE),DRSC20137,-0.259,-0.658
CG13516,DRSC04159,-1.75,0.0596
CG8613,DRSC07222,-0.0556,0.219
Asciz (ASCIZ zinc finger protein),DRSC08421,0.614,1.92
CG17030,DRSC08503,-0.902,0.117
mag (magro),DRSC11787,-0.818,-0.34
CG10081,DRSC05962,-0.6,0.768
TyrRS (Tyrosyl-tRNA synthetase),DRSC10430,0.944,0.427
CG9130 + CG9133,DRSC08624,-0.448,0.0455
CG9130 + CG9133,DRSC08625,-0.191,0.546
CG9130 + CG9133,DRSC22010,0.833,0.278
